# Measurements from publication PMC5996148.
# Several values for one entry are separate records, joined by “and”; a condition that tells them apart may be missing. Identical values can stand only once. The list shows a part of the results. For some of these results: The source does not settle which construct or isoform was used.
# Key:
# Assay in all cases: protein microarray (ProtoArray v5.0), streptavidin-Alexa Fluor 647
# Details in all cases: 3'-biotin; 20 mM Tris (pH 7.5), 5 mM MgCl2, 100 mM KCl, 0.1% Tween-20, A/T-rich and random oligonucleotide blockers; temperature not stated; high values mean tight binding
# DUS3L (human) = tested on: DUS3L (human)
# DUSP21 = target: T1, DUSP21 (UniProt Q9H596)
# T1 sequence: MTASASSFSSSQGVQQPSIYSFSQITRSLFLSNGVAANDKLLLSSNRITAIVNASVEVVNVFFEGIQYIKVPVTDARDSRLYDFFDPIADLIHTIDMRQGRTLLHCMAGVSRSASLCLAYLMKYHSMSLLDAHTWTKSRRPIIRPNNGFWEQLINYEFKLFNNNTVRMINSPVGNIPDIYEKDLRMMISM
# DUSP22 (human) = tested on: DUSP22 (human)
# DUSP6 (human) = tested on: DUSP6 (human)
# DUT (human) = tested on: DUT (human)
# DYDC1 (human) = tested on: DYDC1 (human)
# DYNC1LI2 (human) = tested on: DYNC1LI2 (human)
# DYNC2LI1 (human) = tested on: DYNC2LI1 (human)
# DYNLL1 (human) = tested on: DYNLL1 (human)
# [1] = tested on: Dehydrogenase/reductase SDR family member 1 (human)
sequence,measurement,setting,value
GGGAGGCTGAGGCAGG [G4-1 biotinylated (PQS2)],binding signal,DUS3L (human),-0.308 z-score
same,binding signal,DUSP21,-0.303 z-score
same,binding signal,DUSP22 (human),-0.336 z-score
same,binding signal,DUSP6 (human),-0.361 z-score
same,binding signal,DUT (human),-0.247 z-score and -0.337 z-score
same,binding signal,DYDC1 (human),-0.26 z-score
same,binding signal,DYNC1LI2 (human),-0.36 z-score
same,binding signal,DYNC2LI1 (human),-0.295 z-score
same,binding signal,DYNLL1 (human),-0.332 z-score
same,binding signal,[1],-0.36 z-score and -0.334 z-score
